The target in the data set is CD31 (PECAM-1) (UniProt P16284). The experiment in a line: binding assay. The note with it: positions printed as 6 (n in SEQ ID NO: 1) are modified bases, identity not stated in the supplied text; immunocytochemical staining at 600 nM; HUVECs stained, HepG2 and MSCs not stained; protein on the cell surface; protein details: endogenous on HUVECs; label: Cy5; single-stranded DNA.

At least one result comes from cells or an extract, where the contact may be indirect.

This is an account of results in patent publication US20230285635.

Regarding “TCAGCCGCCAGCCAGTTCGTAGAGGAGGTACGTAATGTCTGGGTATACCCCGATAATTGACCAGAGCACCACAGAG [anti-CD31 aptamer]”, the binding result is on record as “binds”.
